System: HDAC (HeLa nuclear extract)
Assay: Test for evaluation of an HDAC inhibitory effect (HDAC Fluorimetric Assay/Drug Discovery Kit, Biomol)
Assay type: biochemical
Conditions: final concentration of test compound 30 μM, rates of more than 100% are shown as 100%
Experimental: Using HDAC Fluorimetric Assay/Drug Discovery Kit (manufactured by Biomol), an HDAC inhibitory effect of the present compounds was measured according to the protocol included with the kit. The kit contains Buffer, HeLa nuclear extract (includes an HDAC), Substrate, Developer and Trichostatin A (an HDAC inhibitor).
A test compound was dissolved in dimethyl sulfoxide, whereby a 2 mg/mL solution was prepared. Then, the resulting solution was diluted with Buffer containing 5% dimethyl sulfoxide, whereby a 150 μM test compound solution was prepared.
1) To a 384-well culture plate, the test compound solution was added in an amount of 2 μL per well.
2) HeLa nuclear extract was diluted 30-fold with Buffer. The resulting solution was added in an amount of 3 μL per well and then, incubation was performed at 37° C. for 2 hours.
3) Substrate was diluted 500-fold with Buffer. […]
5) The fluorescence intensity of each well was measured using multilabel counter ARVO (manufactured by Wallac) with excitation at 360 nm and emission at 460 nm. […]
Enzyme inhibitory rate (%) was calculated using the following equation.
(Enzyme Inhibitory Rate(%))=100×[1−{(Fluorescence Intensity of Test Compound Solution)−(Florescence Intensity of Blank)}/{(Florescence Intensity of Control)−(Florescence Intensity of Blank)}]

Enzyme Inhibitory Rate (%): 97%
SMILES: O=C(CCCCCCC(=O)Nc1ccccc1)NO [SAHA, N-Hydroxy-N′-phenyloctanediamide, reference compound]

Reference: patent US20100056522A1, “INTRAOCULAR PRESSURE-LOWERING AGENT COMPRISING COMPOUND HAVING HISTONE DEACETYLASE INHIBITOR EFFECT AS ACTIVE INGREDIENT” (Santen Pharmaceutical Co., Ltd., priority 2007, published 2010)
